This note sets out measurements from article PMC7360120.

No constants are given. Whether binding was seen depends on the method and setting. Binding seen in cells or lysates may run through a third protein. Some entries that bind do so weakly or less than the wild type. For some of these results: Where a sequence is shown, tags or fusion partners need not be part of it.

The target of one experiment is GST-Rab6B Q72L (UniProt P61294). The experiment can be described thus: pull-down; GST-Rab proteins (10 μg, active and inactive mutants) on glutathione-Sepharose with 0.5 mL mouse brain lysate (wild type; RIM1 knockout in Figure S3C); 100 mM NaCl, 4 mM EGTA, 25 mM HEPES pH 7.4, 1 mM DTT, 1% Triton X-100, 6 mM Mg2+, 1.5 h at 4°C; western blot; only the target purified.

In another experiment the target is T1, GST-Rab6A Q72L (UniProt P35279).
T1 sequence: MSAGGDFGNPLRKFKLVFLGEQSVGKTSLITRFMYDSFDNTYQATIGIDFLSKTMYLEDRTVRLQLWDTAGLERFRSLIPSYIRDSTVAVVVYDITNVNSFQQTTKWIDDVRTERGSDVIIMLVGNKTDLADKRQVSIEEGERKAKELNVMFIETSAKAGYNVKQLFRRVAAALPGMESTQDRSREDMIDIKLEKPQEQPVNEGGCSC
The experiment is described as above.

B1: endogenous ELKS1 (protein, UniProt Q99MI1 1-1120)
chain: MYGSARSVGKVEPSSQSPGRSPRLPRSPRLGHRRTNSTGGSSGNSVGGGSGKTLSMENIQSLNAAYATSGPMYLSDHENVGAETPKSTMTLGRSGGRLPYGVRMTAMGSSPNIASSGVASDTIAFGEHHLPPVSMASTVPHSLRQARDNTIMDLQTQLKEVLRENDLLRKDVEVKESKLSSSMNSIKTFWSPELKKERALRKDEASKITIWKEQYRVVQEENQHMQMTIQALQDELRIQRDLNQLFQQDSSSRTGEPCVAELTEENFQRLHAEHERQAKELFLLRKTLEEMELRIETQKQTLNARDESIKKLLEMLQSKGLSAKATEEDHERTRRLAEAEMHVHHLESLLEQKEKENNMLREEMHRRFENAPDSAKTKALQTVIEMKDSKISSMERGLRDLEEEIQMLKSNGALSSEEREEEMKQMEVYRSHSKFMKNKVEQLKEELSSKDAQGEELKKRAAGLQSEIGQVKQELSRKDTELLALQTKLETLTNQFSDSKQHIEVLKESLTAKEQRAAILQTEVDALRLRLEEKETMLNKKTKQIQDMAEEKGTQAGEIHDLKDMLDVKERKVNVLQKKIENLQEQLRDKEKQMSSLKERVKSLQADTTNTDTALTTLEEALADKERTIERLKEQRDRDEREKQEEIDTYKKDLKDLREKVSLLQGDLSEKEASLLDIKEHASSLASSGLKKDSRLKTLEIALEQKKEECLKMESQLKKAHEATLEARASPEMSDRIQQLEREISRYKDESSKAQTEVDRLLEILKEVENEKNDKDKKIAELESLTSRQVKDQNKKVANLKHKEQVEKKKSAQMLEEARRREDSLSDSSQQLQDSLRKKDDRIEELEEALRESVQITAEREMVLAQEESARTNAEKQVEELLMAMEKVKQELESMKAKLSSTQQSLAEKETHLTNLRAERRKHLEEVLEMKQEALLAAISEKDANIALLELSSSKKKTQEEVAALKREKDRLVQQLKQQTQNRMKLMADNYEDDHFRSSRSNQTNHKPSPDQIIQPLLELDQNRSKLKLYIGHLTALCHDRDPLILRGLTPPASYNADGEQAAWENELQQMTQEQLQNELEKVEGDNAELQEFANTILQQIADHCPDILEQVVNALEESS
As to B1, the binding result with GST-Rab6B Q72L and in the experiment with GST-Rab6A Q72L was “binds” in each case.

B2: endogenous ELKS2 (protein, UniProt Q6PH08 1-957)
chain: MYGSARTISNLEGSPSRSPRLPRSPRLGHRRTSSGGGGGTGKTLSMENIQSLNAAYATSGPMYLSDHEGVASTTYPKGTMTLGRATNRAVYGGRVTAMGSSPNIASAGLSHTDVLSYTDQHGGLSGSSHHHHHQVPSMLRQVRDSTMLDLQAQLKELQRENDLLRKELDIKDSKLGSSMNSIKTFWSPELKKERVLRKEEAARMSVLKEQMRVSHEENQHLQLTIQALQDELRTQRDLNHLLQQESGNRGAEHFTIELTEENFRRLQAEHDRQAKELFLLRKTLEEMELRIETQKQTLNARDESIKKLLEMLQSKGLPSKSLEDDNERTRRMAEAESQVSHLEVILDQKEKENIHLREELHRRSQLQPEPAKTKALQTVIEMKDTKIASLERNIRDLEDEVQMLKANGVLNTEDREEEIKQIEVYKSHSKFMKTKIDQLKQELSKKESELLALQTKLETLSNQNSDCKQHIEVLKESLTAKEQRAAILQTEVDALRLRLEEKESFLNKKTKQLQDLTEEKGTLAGEIRDMKDMLEVKERKINVLQKKIENLQEQLRDKDKQLTNLKDRVKSLQTDSSNTDTALATLEEALSEKERIIERLKEQRERDDRERLEEIESFRKENKDLKEKVNALQAELTEKESSLIDLKEHASSLASAGLKRDSKLKSLEIAIEQKKEECNKLEAQLKKAHNIEDDSRMNPEFADRLKQLDKEASYYRDECGKAQAEVDRLLEILKEVENEKNDKDKKIAELESLTLRHMKDQNKKVANLKYNQQLEKKKNAQLLEEVRRREDSMVDNSQHLQIEELMNALEKTRQELDATKARLASTQQSLAEKEAHLANLRIERRKQLEEILEMKQEALLAAISEKDANIALLELSASKKKKTQEEVMALKREKDRLVHQLKQQTQNRMKLMADNYDEDHHHYHHHHHHHHHRSPGRSQHSNHRPSPDQDDEEGIWA
Regarding B2, the binding entry with GST-Rab6B Q72L and in the experiment with GST-Rab6A Q72L was “binds” throughout.
